PubChem BioAssay AID504808 – Drosophila RNAi Screening Center | 2011
The screen tested about 21,000 reagents; this is an unselected part of those with a known target gene and a result. In the full data, 18 (0.084%) got an active call. 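Raw counts without plate normalisation, one of two replicates; the ratio scores behind the calls were not deposited.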 Unmarked entries are inactive. No sequences are given here. Not given: the amount of reagent, the time to read-out.

Test: 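Genes whose loss lifts activity of an E2F-responsive reporter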 (primary screen)
Cells: Drosophila S2 cells
Reagent: long dsRNA against Drosophila genes
Measured: 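Dual luciferase plate measurements; E2F-specific signal taken as firefly over Renilla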
Direction: E2F firefly: higher = more E2F reporter activity; Renilla normaliser: higher = more normaliser reporter signal
Hit rule: 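Called active if the normalised E2F reporter went up by over 50%; the cutoff is arbitrary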

After knock-down of Prosalpha7 [DRSC07516], the screen gave E2F firefly, rep 1 = 2913; Renilla normaliser, rep 1 = 92. CDase [DRSC14932] gave E2F firefly, rep 1 = 1728; Renilla normaliser, rep 1 = 856. Atg13 [DRSC16228] scored E2F firefly, rep 1 = 1.47e5; Renilla normaliser, rep 1 = 7510. For Dim1 [DRSC00563], the entry reads E2F firefly, rep 1 = 1.23e5; Renilla normaliser, rep 1 = 5801. Against CG14731 [DRSC14952], the values are E2F firefly, rep 1 = 1.38e5; Renilla normaliser, rep 1 = 5566. Silencing of CG13744 [DRSC06415] resulted in: E2F firefly, rep 1 = 1.33e5; Renilla normaliser, rep 1 = 4647.

With knock-down of LIMK1 [DRSC19811], the record shows E2F firefly, rep 1 = 7993; Renilla normaliser, rep 1 = 692. Silencing of SmydA-8 [DRSC18797] resulted in: E2F firefly, rep 1 = 1.18e5; Renilla normaliser, rep 1 = 5668. Depletion of CG31869 [DRSC02582] gave: E2F firefly, rep 1 = 1.52e5; Renilla normaliser, rep 1 = 5304. CG31869 [DRSC02674] gave E2F firefly, rep 1 = 1.51e5; Renilla normaliser, rep 1 = 5335.

3 entries already listed, ordered by “E2F firefly, rep 1”, descending.
CG31869 [DRSC02582] | E2F firefly, rep 1 = 1.52e5; Renilla normaliser, rep 1 = 5304
CG31869 [DRSC02674] | E2F firefly, rep 1 = 1.51e5; Renilla normaliser, rep 1 = 5335
SmydA-8 [DRSC18797] | E2F firefly, rep 1 = 1.18e5; Renilla normaliser, rep 1 = 5668

Continued:
After knock-down of eIF4H2 [DRSC14582], the record shows E2F firefly, rep 1 = 1666; Renilla normaliser, rep 1 = 868. Lrpprc2 [DRSC18605] gave E2F firefly, rep 1 = 1707; Renilla normaliser, rep 1 = 1052. Against CG7519 [DRSC11834], the values are E2F firefly, rep 1 = 1.44e5; Renilla normaliser, rep 1 = 7093. CG5966 [DRSC18394] gave E2F firefly, rep 1 = 7963; Renilla normaliser, rep 1 = 800. Silencing of GABPI [DRSC00494] gave: E2F firefly, rep 1 = 90215; Renilla normaliser, rep 1 = 3725. For Takl2 [DRSC15650] the deposit lists E2F firefly, rep 1 = 98189; Renilla normaliser, rep 1 = 5569.

After knock-down of CG8064 [DRSC16373] the results were E2F firefly, rep 1 = 76188; Renilla normaliser, rep 1 = 5038. Muc26B [DRSC02322] gave E2F firefly, rep 1 = 1.37e5; Renilla normaliser, rep 1 = 4657. Depletion of Neurochondrin [DRSC12580] resulted in: E2F firefly, rep 1 = 61683; Renilla normaliser, rep 1 = 3526.
